From PMC7026339, “Human bone morphogenetic protein-2 (hBMP-2) characterization by physical–chemical, immunological and biological assays” (AMB Express, 2020) come the findings set out here.

The target in assay [1] is E. coli-derived methionyl-human bone morphogenetic protein-2 (met-hBMP-2, GenScript) (human) (UniProt P12643). As to the kind of experiment: SDS-PAGE and Western blotting under reducing conditions; 15% acrylamide gel, Coomassie Blue G stain; Western blot with anti-hBMP-2 rabbit IgG; reducing conditions; both purified. For orientation: Immunoblotting shows a protein as a band on a membrane.

In assay [2] the target is T1, CHO-derived hBMP-2 (Infuse, Medtronic), 114 amino acid glycosylated subunit (form A) (human) (UniProt P12643).
T1 sequence (chain, glycosylated at one site with high-mannose-type glycans): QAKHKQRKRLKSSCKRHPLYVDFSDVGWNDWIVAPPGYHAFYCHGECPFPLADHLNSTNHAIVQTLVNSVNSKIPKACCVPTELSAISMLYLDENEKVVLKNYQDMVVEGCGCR
The description is as above.

The target in assay [3] is T1, CHO-derived hBMP-2 (Infuse, Medtronic), 114 amino acid glycosylated subunit (form A) (human). Briefly: MALDI-TOF-MS; linear positive mode, 5000-40,000 Da, sinapinic acid matrix in 0.1% TFA and 50% acetonitrile; both purified.

No constants are given. Whether binding was seen depends on the method and setting. Some results given as binding are weak or reduced against the parent protein; the word gives no strength. For part of these data: Sequences can lack the tags named with a protein.

B1: E. coli-derived methionyl-human bone morphogenetic protein-2 (met-hBMP-2, GenScript) (natural protein)
chain: MQAKHKQRKRLKSSCKRHPLYVDFSDVGWNDWIVAPPGYHAFYCHGECPFPLADHLNSTNHAIVQTLVNSVNSKIPKACCVPTELSAISMLYLDENEKVVLKNYQDMVVEGCGCR
notes: initial methionine of methionyl-hBMP-2 (printed as 'initial Met'); human bone morphogenetic protein-2, mature protein of 114 AA (theoretical backbone 12,905 Da without the initial Met; 13,036 Da with it); theoretical mass of the dimer 26,072 Da; also called E. coli-derived hBMP-2; GenScript preparation; source: bought: GenScript (from E. coli), lyophilized, reconstituted in 20 mM acetic acid
Turning to B1, the binding result in assay [1] is recorded as “no binding (condition: under reducing conditions)”.

B2: CHO-derived hBMP-2 (Infuse, Medtronic), 114 amino acid glycosylated subunit (form A) (natural protein, human, UniProt P12643 283-396, looked up)
chain: QAKHKQRKRLKSSCKRHPLYVDFSDVGWNDWIVAPPGYHAFYCHGECPFPLADHLNSTNHAIVQTLVNSVNSKIPKACCVPTELSAISMLYLDENEKVVLKNYQDMVVEGCGCR
modifications: glycosylated at one site with high-mannose-type glycans
notes: human bone morphogenetic protein-2, authentic mature protein of 114 AA without initial Met (backbone 12,905 Da); Infuse is a disulfide-linked dimeric protein with two major subunit species of 114 and 131 amino acids; this molecule is the 114 AA subunit; also called 14,377 Da form; 114 AA monomer
With B2, in assay [2], the binding entry is “no binding (condition: under reducing conditions)”.

B3: CHO-derived hBMP-2 (Infuse, Medtronic), 131 amino acid glycosylated subunit (form B) (protein, UniProt P12643 266-396)
chain: TFGHDGKGHPLHKREKRQAKHKQRKRLKSSCKRHPLYVDFSDVGWNDWIVAPPGYHAFYCHGECPFPLADHLNSTNHAIVQTLVNSVNSKIPKACCVPTELSAISMLYLDENEKVVLKNYQDMVVEGCGCR
modifications: glycosylated at one site with high-mannose-type glycans
In the case of B3, the binding result in assay [3] is “binds”.
